Assay results published in publication PMC8754118, “The PqsE-RhlR Interaction Regulates RhlR DNA Binding to Control Virulence Factor Production in Pseudomonas aeruginosa” (Microbiology Spectrum, 2022).
Results are given in words; binding and its absence hold for the method and conditions named. Binding seen in cells or lysates may run through a third protein. Some binding calls cover weakened binding; strength is not graded here.

The chains behind the UniProt entries cited, without tags or fusion partners.
UniProt P20581: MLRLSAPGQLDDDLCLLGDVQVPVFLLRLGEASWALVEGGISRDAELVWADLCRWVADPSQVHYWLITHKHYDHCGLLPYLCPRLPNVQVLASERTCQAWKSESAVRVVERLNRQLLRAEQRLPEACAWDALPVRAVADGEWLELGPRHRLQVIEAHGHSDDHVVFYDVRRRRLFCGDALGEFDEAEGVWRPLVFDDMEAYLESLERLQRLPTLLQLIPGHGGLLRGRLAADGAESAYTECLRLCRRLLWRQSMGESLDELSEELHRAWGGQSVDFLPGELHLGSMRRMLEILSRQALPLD
UniProt P54292: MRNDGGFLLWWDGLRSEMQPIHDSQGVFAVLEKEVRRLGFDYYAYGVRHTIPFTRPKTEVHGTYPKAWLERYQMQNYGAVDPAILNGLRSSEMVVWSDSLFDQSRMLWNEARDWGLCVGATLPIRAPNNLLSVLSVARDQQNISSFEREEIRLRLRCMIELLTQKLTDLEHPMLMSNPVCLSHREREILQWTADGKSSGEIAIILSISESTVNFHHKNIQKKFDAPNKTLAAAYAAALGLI

Assays:
[1] = biological target: 6x-His-PqsE (wild type) (P. aeruginosa) (UniProt P20581); assay: pull-down; the same affinity purification on Ni beads with 6x-His-PqsE as bait, under varying concentrations of RhlR:mBTL (Fig. S4b)
[2] = biological target: 6x-His-PqsE (wild type) (P. aeruginosa) (UniProt P20581); assay: pull-down + SEC; lysates with 6x-His-PqsE and with untagged RhlR:mBTL mixed, Ni-NTA resin 2 h, eluted with 250 mM imidazole, Superdex-200 in 20 mM Tris-HCl, 150 mM NaCl, pH 8.0; complex checked by SDS-PAGE
[3] = biological target: 6x-His-PqsE (wild type) (P. aeruginosa) (UniProt P20581); assay: pull-down; E. coli lysate with 6x-His-PqsE (bait) combined with an equal amount of lysate with untagged RhlR:mBTL (or RhlR*, made without mBTL); MagneHis Ni-particle beads, 1 h at 4°C; 20 mM Tris-HCl, 150 mM NaCl, pH 8.0; eluted with 1 M imidazole; SDS-PAGE, Coomassie

Measured: binding

RhlR bound to meta-bromo-thiolactone (RhlR:mBTL) (from UniProt P54292 1-241) (receptor)
binds: all assays above
